Data published in publication PMC8139965.
No constants are given. Whether binding was seen depends on the method and setting. In cells and extracts the contact can be indirect. Some results given as binding are weak or reduced against the parent protein; the word gives no strength.

Biological target: T1, EphA3 on the surface of human TNBC cell line HCC70 (human (endogenous in HCC70)) (UniProt P29320)
T1 sequence: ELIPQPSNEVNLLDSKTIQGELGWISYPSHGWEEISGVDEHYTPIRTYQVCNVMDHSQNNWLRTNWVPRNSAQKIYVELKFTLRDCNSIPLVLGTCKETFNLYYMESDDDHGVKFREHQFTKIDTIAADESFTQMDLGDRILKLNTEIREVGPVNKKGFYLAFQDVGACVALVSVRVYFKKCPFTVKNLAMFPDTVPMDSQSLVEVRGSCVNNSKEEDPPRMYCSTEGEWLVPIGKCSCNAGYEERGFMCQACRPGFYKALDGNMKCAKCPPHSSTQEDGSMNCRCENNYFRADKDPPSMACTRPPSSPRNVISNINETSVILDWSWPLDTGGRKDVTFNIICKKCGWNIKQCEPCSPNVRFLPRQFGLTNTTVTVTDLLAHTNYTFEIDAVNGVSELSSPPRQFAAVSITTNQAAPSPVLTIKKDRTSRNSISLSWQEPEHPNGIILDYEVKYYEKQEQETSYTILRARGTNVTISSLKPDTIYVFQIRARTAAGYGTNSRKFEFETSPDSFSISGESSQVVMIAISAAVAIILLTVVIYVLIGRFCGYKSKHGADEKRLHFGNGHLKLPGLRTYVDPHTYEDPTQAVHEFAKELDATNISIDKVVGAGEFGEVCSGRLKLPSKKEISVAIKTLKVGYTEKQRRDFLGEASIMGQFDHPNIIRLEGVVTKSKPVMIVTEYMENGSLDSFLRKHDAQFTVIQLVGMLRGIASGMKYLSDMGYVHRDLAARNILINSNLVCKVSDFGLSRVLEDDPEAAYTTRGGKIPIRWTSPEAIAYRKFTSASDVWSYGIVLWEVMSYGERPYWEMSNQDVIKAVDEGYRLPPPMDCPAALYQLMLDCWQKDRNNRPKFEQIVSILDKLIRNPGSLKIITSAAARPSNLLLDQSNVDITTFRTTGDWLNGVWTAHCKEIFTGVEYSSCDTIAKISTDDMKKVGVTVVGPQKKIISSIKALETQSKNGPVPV
Assay: proximity ligation; HCC70 cells treated with recombinant human IL-26 (30 ng/ml) for 1 h, fixed with 4% paraformaldehyde; goat anti-human IL-26 pAb and mouse anti-human EphA3 mAb; Duolink in situ PLA; only the binder purified

B1: recombinant human IL-26 dimer (ligand, UniProt Q9NPH9 22-171)
chain: KHKQSSFTKSCYPRGTLSQAVDALYIKAAWLKATIPEDRIKNIRLLKKKTKKQFMKNCQFQEQLLSFFMEDVFGQLQLQGCKKIRFVEDFHSLRQKLSHCISCASSAREMKSITRMKRIFYRIGNKGIYKAISELDILLSWIKKLLESSQ
  binding: binds
